These are yes or no findings as the source states them, for the method shown.
Experiments:
[1] = target: AFF1-THD F1063A+Y1145A+V1146A+V1152A (UniProt P51825); test: AUC; sedimentation velocity, 20 °C, 50,000 rpm, 25 mM Tris pH 8.0, 150 mM NaCl, 2 mM DTT; self-association, dimer or monomer; both purified
[2] = target: AFF1-THD F1063A+Y1145A+V1146A+V1152A (UniProt P51825); test: SEC; analytical gel filtration, Superdex 75 10/300 increase, 25 mM Tris pH 8.0, 150 mM NaCl, 2 mM DTT; 6 mg/ml, 100 μl injected; self-association, dimer or monomer by elution volume; both purified

binding [1]: no binding | binding [2]: no binding (tested: 6 mg/ml injected)
B1: AFF1-THD F1063A+Y1145A+V1146A+V1152A (domain or fragment, UniProt P51825 953-1210)
chain: GKPQVKFDKQQADLHMREAKKMKQKAELMTDRVGKAFKYLEAVLSFIECGIATESESQSSKSAYSVYSETVDLIKFIMSLKSFSDATAPTQEKIFAVLCMRCQSILNMAMARCKKDIAIKYSRTLNKHFESSSKVAQAPSPCIASTGTPSPLSPMPSPASSVGSQSSAGSVGSSGVAATISTPVTIQNMTSSAATITSHALTAFDLWEQAEALTRKNKEFFARLSTNVCTLALNSSLVDLVHYTRQGFQQLQELTKTP
